{"source": "patent US10174015B2", "about": "“Substituted heterocyclic derivative, preparation method and use thereof” (Xiamen University, priority 2014, dated 2019)", "key": {"[1]": {"system": "inflammatory abdominal pain caused by acetic acid", "experiment": "Abdominal inflammatory pain caused by acetic acid", "assay_type": "in vivo, Kunming mice", "details": "mice, 10 mg/kg i.p. 1 h before acetic acid; indometacin 20 mg/kg (FIG. 4)", "procedure": "(§1) In the Experimental example, compounds to be evaluated or compounds to be tested or test compounds used are the Compounds 1-46 prepared in the Examples according to the invention. In the Experimental example, all the agents for injection, including compounds to be evaluated or compounds to be tested or test compounds, and positive control drug, were dissolved in a mixed solvent of PEG400:Tween 80:normal saline (at a volume ratio of 5:5:90), at a concentration of 5 mg/mL.\nTypical model for studying inflammation-induced visceral pain medically was used to evaluate the therapeutic effects of compounds on inflammatory visceral pain. […]\nExperimental Kunming mice (purchased by Xiamen University Laboratory Animal Center from Shanghai SLAC Laboratory Animal Co., Ltd) were in an experimental environment with free access to food and water for 1 week. […] The compound to be evaluated (10 mg/kg) was administered to the mice by intraperitoneal injection at 1 h before administration of acetic acid, wherein the positive control drug indometacin was administered at a dose of 20 mg/kg, and the blank control was normal saline. […] Pain-related behavior was analyzed statistically based on torsion times of the mice in said period."}, "[2]": {"system": "adjuvant-induced arthritis rat models", "experiment": "Adjuvant-induced osteoarthritis pain, foot swelling degree", "assay_type": "in vivo", "details": "rats, 10 mg/Kg; indometacin 10 mg/Kg", "procedure": "Typical model for studying inflammatory pain medically was used to evaluate the therapeutic effects of compounds on inflammatory pain. 0.1 mL Freund's complete adjuvant was intradermally injected to toe of the left hind foot of the rats in each group to obtain adjuvant-induced arthritis rat models. Foot volume method was used to measure primary and secondary foot swelling degree (swelling degree=volume after inflammation−volume before inflammation), and polyarticular arthritis were scored (5 scoring grades: 0 represents no red swelling; 4 represents red swelling at all the paws including anklebone. The scores are accumulated according to the lesion degree of the rest three limbs not injected with adjuvant, and the highest score is 12). Before inflammation and at 6 h, 12 h, 18 h and 24 h after inflammation, Paw Volume Meter was used to measure the foot volume at the inflammatory side, and the swelling degree was calculated. The model can represent inflammatory pain including, but not only limited to: osteoarthritis pain and fibromyalgia syndrome, inflammatory pain of rheumatic and rheumatoid arthritis, inflammatory pain of endometriosis, inflammatory toothache, ankylosing spondylitis pain, and gouty arthritis pain."}, "SNI neuropathic pain": {"system": "SNI neuropathic pain", "experiment": "Neuropathic pain mouse model induced by spared nerve injury (SNI)", "assay_type": "in vivo, C57BL/6 mice", "details": "SNI mice", "procedure": "as §1\nNeuropathic pain mouse model induced by spared nerve injury (SNI) is a common animal model for studying neuropathic pain medically. The invention uses the model to evaluate the therapeutic effects of the compounds on neuropathic pain, wherein the model can represent peripheral neuropathic pain including, but not limited to post-herpetic neuralgia, pain caused by diabetic perineuropathy, neurothlipsis and exudation caused by tumor, lumbar surgery failure syndrome, neuropathic pain caused by lumbar disc protrusion, postpartum neuralgia, trigeminal neuralgia, chemotherapy-induced multiple neuropathic pain, post-radiotherapy plexopathy, and radicular neuralgia.\nC57BL/6 mice (purchased from Shanghai SLAC Laboratory Animal Co., Ltd) were anesthetized by intraperitoneal injection with pentobarbital sodium (40 mg/kg), and skin from knee joint to gluteal region was subjected to skin preparation and disinfection. After the mice were fixed, the knee joint part was cut about 1 cm longitudinally with bistoury, and muscle tissues were separated by blunt dissection to expose sciatic nerve. The tibial and common peroneal nerve branches of sciatic nerve stem were cut off carefully, and the cut was then stitched up. The mice was placed in a clean observation cage. In the sham-operation group, only sciatic nerve was exposed without cutting the tibial and common peroneal nerve branches. […] By comparing the threshold values (the acting force of when the mouse retracting the paw) at different administration time in different administration groups, the compound was evaluated for its analgesic effect on neuropathic pain."}, "[3]": {"system": "headache caused by nitroglycerin", "experiment": "Nitroglycerin-induced headache rat model", "assay_type": "in vivo, Wistar rats", "details": "rats, 10 mg/kg i.p. 1 h before nitroglycerin (FIG. 5)", "procedure": "as §1\nNitroglycerin-induced headache rat model was a common model for studying inflammatory pain medically. The model was used in the invention to evaluate the therapeutic effects of the compounds on headache. […]\nExperimental Wistar rats with a body weight of about 250 g for each (purchased from Shanghai SLAC Laboratory Animal Co., Ltd) were in an experimental environment with free access to food and water for 1 week. […] The compound to be evaluated (10 mg/kg) was intraperitoneally injected to the rat at 1 h before the administration of nitroglycerin, wherein the positive control drug was indomethacin and the blank control was normal saline. […] Pain-related behavior was analyzed statistically based on the times that the rat scratched its head in said period."}}, "note": "At least one compound was matched to its structure with a doubt left."}
{"smiles": "O=C(Cc1cccc(-c2ccccc2)c1)N1CCOC1=O", "note": "[Compound 14, 3-Biphenylacetyl Oxazolidinone]", "values": [{"measurement": "effect of inhibiting abdominal inflammatory pain", "setting": "[1]", "result": "significant effects of inhibiting abdominal inflammatory pain"}, {"measurement": "effect of inhibiting osteoarthritis pain", "setting": "[2]", "result": "significant effects of inhibiting osteoarthritis pain"}, {"measurement": "effect of inhibiting central neuropathic pain", "setting": "SNI neuropathic pain; 10 mg/kg i.p. (gabapentin 100 mg/kg), 4 h after administration", "result": "retained a relatively strong effect of inhibiting central neuropathic pain"}, {"measurement": "effect compared to positive control drug gabapentin", "setting": "SNI neuropathic pain; 10 mg/kg i.p. vs gabapentin 100 mg/kg, 1 h after administration", "result": "not as effective as the control drug"}, {"measurement": "effect of inhibiting central neuropathic pain", "setting": "SNI neuropathic pain; 10 mg/kg intraperitoneal, 1 h and 4 h after administration (FIGS. 1 and 2)", "result": "significant effects of inhibiting central neuropathic pain"}, {"measurement": "effect of inhibiting nitroglycerin-induced headache", "setting": "[3]", "result": "significant effects of inhibiting nitroglycerin-induced headache in rats"}]}
